Assay results: PubChem BioAssay AID540276 (National Center for Advancing Translational Sciences (NCATS), 2011)
The campaign covered roughly 300,000 compounds. About 5,400 (1.8%) were called active. Inconclusive results, whose numbers are uncertain, are shown with a selection of clear calls. Calls come from the whole dose curve; tested in HEK293 cells. Potencies of inconclusive entries are doubtful fits and often do not repeat.

Test: qHTS for inhibitors of binding or entry into cells for Marburg Virus
Details: Marburg virus pseudotyped entry inhibition, cell reporter; activity change, negative = inhibition: at 37.8 µM (top of the series) unless noted
% is set by controls: 0 for no effect and ±100 for the full control effect; potency is the fitted concentration of half-maximal effect.

| SMILES | Potency | activity change, negative = inhibition |
| --- | --- | --- |
| O=C(c1cc(S(=O)(=O)N2CCOCC2)ccc1F)N(CCc1ccccc1)Cc1ccccc1 | inconclusive: 22.4 µM [inhibitor, single point] |  |
| O=C(Nc1cc(S(=O)(=O)N2CCOCC2)ccc1Cl)c1ccncc1 | inconclusive: 5.62 µM [inhibitor, single point] |  |
| CCOc1ccc(N2C(=O)C3=C(C(c4ccc(Cl)cc4)=NCCN3)C2c2cccnc2)cc1 (stereo not given) | active: 11.2 µM |  |
| CSc1ccccc1NP1(=O)OCC(C)([N+](=O)[O-])CO1 (stereo not given) | inactive |  |
| CC1CC(Nc2ccccc2)c2ccccc2N1C(=O)c1ccncc1 (stereo not given) | active: 10 µM |  |
| CN1CCN(CCOc2ccc(Cl)c(Cl)c2)CC1 | inactive |  |
| Cc1ccc(S(=O)(=O)Nc2cc(C(=O)NCCN3CCCC3)ccc2N2CCCCC2)cc1 | inconclusive: 14.1 µM [inhibitor, partial curve, poor fit] |  |
| Cc1ccc(S(=O)(=O)c2nnn3c2nc(N2CCN(c4ccc(F)cc4)CC2)c2cc(Cl)ccc23)cc1C | inactive |  |
| Cn1nc(-c2ccccc2)c(-c2nc(-c3ccc(Cl)cc3)no2)c1Cl | inconclusive: 0.794 µM [activator, single point] |  |
| O=C(OCC(=O)c1c[nH]c2ccccc12)c1ccc([N+](=O)[O-])s1 | inactive |  |
| COc1ccc(S(=O)(=O)N[C@@H](Cc2ccccc2)C(=O)N2CC[C@@]3(O)CCCC[C@H]3C2)cc1 | inconclusive: 5.62 µM [activator, single point] |  |
| CC(OC(=O)c1ccc(-n2cnnn2)cc1)C(=O)NCc1ccccc1 (stereo not given) | inactive |  |
| Cc1ccc(C)c(OCc2nc(-c3cccnc3)no2)c1 | inactive |  |
| CC(C)c1ccc(NC(=O)c2csnn2)cc1 | inconclusive: 18.3 µM [inhibitor, single point] |  |
| CCCCC(=O)Nc1ccc(C(=O)c2ccccc2)cc1 | inconclusive: 4.47 µM [activator, full curve, poor fit] |  |
| CCC(=O)NC(=S)Nc1ccccc1C(=O)NC1CCCCC1 | inconclusive: 2.82 µM [activator, partial curve, poor fit] |  |
| CCOc1ccc(OCC)c(NC(=O)C2CCN(S(=O)(=O)c3ccc(Br)s3)CC2)c1 | inactive |  |
| O=C(COC(=O)c1n[nH]c2ccccc12)Nc1ccccc1Br | inconclusive: 5.01 µM [activator, partial curve] |  |
| CSc1ccc(S(=O)(=O)NCCSC(C)(C)C)cc1 | inactive |  |
| CC1CCCCN1CC(=O)Nc1ccc2c(c1)OC(F)(F)O2 (stereo not given) | inconclusive: 35.5 µM [inhibitor, single point] |  |
| Cc1ccc(N=C2NC(=O)C(CC(=O)NCc3ccccc3)S2)cc1C (stereo not given) | inactive |  |
| CCc1cccc(CC)c1-n1c(SCC(=O)N2CCc3ccccc3C2)nnc1-c1cccnc1 | inconclusive: 14.1 µM [inhibitor, partial curve, poor fit] |  |
| CCOC(=O)c1c(C)[nH]c2cc(Br)c(O)cc12 | inactive |  |
| Cc1nn(-c2ccccc2)c(C)c1C(=O)NCc1ccc(F)cc1 | inconclusive: 0.631 µM [inhibitor, full curve, poor fit] |  |

| SMILES | Potency | activity change, negative = inhibition |
| --- | --- | --- |
| CCN1C(=O)c2cccc3c(NC(=O)c4cccc(N5C(=O)CCC5=O)c4)ccc1c23 | inconclusive: 0.1 µM [inhibitor, partial curve, poor fit] |  |
| O=C(c1ccco1)N1CCN(C(=O)c2cc3sccc3n2Cc2ccccc2)CC1 | inactive |  |
| COc1cccc(C(=O)C2CCCN(Cc3cccn3-c3ccccn3)C2)c1 (stereo not given) | inconclusive: 35.5 µM [inhibitor, single point] |  |
| N#Cc1ccsc1NC(=O)CN1CCN(S(=O)(=O)c2ccc3ccccc3c2)CC1 | inconclusive: 3.55 µM [inhibitor, single point] |  |
| CN1C[C@H](CNC(=O)OCc2ccccc2)C[C@@H]2c3cccc4c3c(cn4C)C[C@H]21 | active: 5.62 µM |  |
| O=C(Nc1ccc(OC(F)F)c(Cl)c1)c1cccc(OC(F)F)c1 | inconclusive: 32.6 µM [inhibitor, single point] |  |
| CC(NCc1ccc(OCc2ccc(Cl)cc2)cc1)C(O)c1ccccc1 (stereo not given) | active: 12.6 µM |  |
| COc1ccc([N+](=O)[O-])cc1NC(=O)Cc1ccc(C)cc1 | inconclusive: 2.91 µM [inhibitor, full curve, poor fit] |  |
| OC[C@@H](O)[C@@H](O)CCc1ccccc1 | inconclusive: 0.299 µM [activator, partial curve, poor fit] |  |
| O=c1c2ccccc2nnn1CSc1ccccc1 | inactive |  |
| CCc1ccc2oc(-c3cc(N)ccc3O)nc2c1 | inconclusive: 15.8 µM [inhibitor, single point] |  |
| CCCc1nc(C)c(-c2ccc(OC)c(OC)c2)c(=O)[nH]1 | inactive |  |
| O=C(COc1ccc2ccc(=O)oc2c1)Nc1cccc(S(=O)(=O)N2CCCCC2)c1 | inactive |  |
| COc1ccccc1CNC(=O)CNC(=O)c1ccc(Br)o1 | inactive |  |
| CC1CN(c2oc(-c3cccs3)nc2C#N)CC(C)O1 (stereo not given) | inconclusive: 25.1 µM [inhibitor, single point] |  |
| CC(C)(/C=N/O)/[N+]([O-])=C/c1ccccc1C(F)(F)F | inconclusive: 35.5 µM [activator, single point] |  |
| CC(=O)NC(=S)Nc1cc(C(F)(F)F)ccc1N1CCOCC1 | inconclusive: 10 µM [inhibitor, partial curve, poor fit] |  |
| O=C(OCC(=O)N1CCC(Cc2ccccc2)CC1)c1ccc(CO)cc1 |  | inconclusive: 8.56% [activator] |
| Cc1cc(=O)oc(C)c1C(=O)OCC(=O)c1ccc(Cl)cc1 | inconclusive: 31.6 µM [activator, single point] |  |
| CCc1nn(CC(=O)N2CCCCC2)c(=O)c2cc3sccc3n12 | inactive |  |
| COc1ccc(CNC(=O)Cc2csc3ccccc23)cc1OC | inconclusive: 0.562 µM [inhibitor, full curve, poor fit] |  |
| CC(C)OC(=O)CSc1nc(N2CCOCC2)c2c(c1C#N)CC(C)(C)OC2 | inconclusive: 15.8 µM [inhibitor, single point] |  |
| CN(C)C1(CNC(=O)C2CCN(S(=O)(=O)c3cc(Cl)ccc3Cl)CC2)CCCCC1 | inconclusive: 11.2 µM [inhibitor, single point] |  |
| NS(=O)(=O)c1cc2c(cc1Cl)N[C@@H]([C@@H]1C[C@@H]3C=C[C@H]1C3)NS2(=O)=O | inconclusive: 2.06 µM [activator, partial curve] |  |

| SMILES | Potency | activity change, negative = inhibition |
| --- | --- | --- |
| CC(C)CCn1c(SCC(=O)c2ccccc2)nc2c1c(=O)[nH]c(=O)n2C | inactive |  |
| Cc1ccccc1-c1nc(CS(=O)(=O)CC(=O)N2CCN(c3ccccc3)CC2)c(C)o1 | inactive |  |
| CN(C)c1ccc(C=c2c3cc([N+](=O)[O-])ccc3n3c2cc(-c2ccccc2)[n+]3C)cc1 | inconclusive: 20 µM [inhibitor, single point] |  |
| COCCn1c(C(C)C)nc2oc3ccccc3c(=O)c2c1=O | inactive |  |
| CC(=O)c1cccc(Nc2c([N+](=O)[O-])c(=O)oc3ccccc23)c1 | inconclusive: 5.62 µM [inhibitor, full curve, poor fit] |  |
| Cc1ccc(-c2noc(CNC(=O)c3ccc4c(c3)OCO4)n2)cc1 | inactive |  |
| CCOC(=O)c1cnc2c(N=Nc3ccccc3)c(N)nn2c1N | inactive |  |
| Cc1nnc(SCC(=O)Nc2nc(-c3ccc(F)cc3)cs2)[nH]c1=O | inconclusive: 11.2 µM [activator, partial curve, poor fit] |  |
| CC(=O)OC(C)C(=O)NS(=O)(=O)c1ccc(C)cc1 (stereo not given) | inconclusive: 3.55 µM [inhibitor, single point] |  |
| CCOC(=O)c1c(NC(=O)c2nn(CC)cc2Br)c(C#N)nn1-c1ccccc1 | inconclusive: 18.3 µM [inhibitor, single point] |  |
| C=CCc1ccc(OCCCNC2CCCC2)c(OC)c1 | inconclusive: 11.2 µM [inhibitor, partial curve, poor fit] |  |
| CCOc1c(Cl)cc(CNc2nnnn2C)cc1OC | inactive |  |
| COC(=O)c1ccccc1NC(=O)C1CCCN(S(=O)(=O)c2ccc(OC)cc2)C1 (stereo not given) | inconclusive: 8.91 µM [inhibitor, partial curve, poor fit] |  |
| CCOc1ccc(NS(=O)(=O)c2cc(Br)cc3c2N(C(=O)C2CC2)CC3)cc1 | inconclusive: 0.631 µM [inhibitor, full curve, poor fit] |  |
| CNC(=O)OCc1nc(SSC(C)(C)C)n(C)c1COC(=O)NC | inconclusive: 7.94 µM [inhibitor, partial curve, poor fit] |  |
| COc1ccccc1N1CCN(C(c2ccc(N(C)C)cc2)c2nnnn2CCc2ccccc2)CC1 (stereo not given) | inconclusive: 17.8 µM [inhibitor, single point] |  |
| CCOC(=O)CSc1ncc(OC)c(Sc2ccc(OC)cc2)n1 | inconclusive: 5.17 µM [inhibitor, partial curve, poor fit] |  |
| CCN(CC)CCNC(=O)c1ccc(NC(=O)Nc2cccc3ccccc23)cc1 | inconclusive: 35.5 µM [inhibitor, single point] |  |
| O=C(CCCN1Cc2ccccc2C1)c1ccc(F)cc1 | inconclusive: 0.206 µM [activator, full curve, poor fit] |  |
| CNC(=S)NCCC(c1ccccc1)c1ccccc1 | inconclusive: 35.5 µM [activator, single point] |  |
| Cc1cc(C)c(OCC(=O)Nc2cccc(NC(=O)c3ccco3)c2)c(Br)c1 | inconclusive: 18.3 µM [inhibitor, single point] |  |
| COC(/C=C/Nc1ccc(Br)cc1)=C(C#N)C#N | inconclusive: 7.3 µM [inhibitor, partial curve, poor fit] |  |
